# The entries are a selection whose mix differs from that of the whole data set. Results filed as inconclusive are left out. Activity calls are given as the source filed them. Rule for the calls: active = hit-call score of the fitted dose curve at least 0.9, where 1 is the maximum; inconclusive = response in the unintended direction; inactive = score below 0.9.
# Test system: frog Retinoid X Receptor beta (RXRb), gene 394278
# Experiment: ATG_frRXRb_EcoTox2: Attagene TRANS-FACTORIAL EcoTox-2 HepG2 Assay for frog Retinoid X Receptor beta (RXRb)
# Protocol: ATG_EcoTox2 is a cell-based, multiplexed assay created by modifying the existing Attagene TRANS-FACTORIAL system to include a panel of nuclear receptors from some or all the following species: human (Homo sapiens), african clawed frog (Xenopus laevis), rainbow trout (Oncorhynchus mykiss), japanese medaka (Oryzias latipes), and zebrafish (Danio rerio). The ECOTOX2-FACTORIAL format uses HepG2, a human liver cell line, with measurements taken at 24 hours after chemical dosing in a 24-well plate. ATG_frRXRb_EcoTox2 is one of 29 assay components calculated in the ATG_EcoTox2 assay. It is designed to make measurements of mRNA induction, a form of inducible reporter, as detected with fluorescence intensity signals by Reverse transcription polymerase chain reaction (RT-PCR) and Capillary electrophoresis technology.The assay endpoint ATG_frRXRb_EcoTox2 was analyzed in the positive analysis fitting direction relative to DMSO as the negative control and baseline of activity. Using a type of inducible reporter, measures of mRNA for gain-of-signal activity can be used to understand the reporter gene at the transcription factor-level as they relate to the gene RXRb. Furthermore, this assay endpoint can be referred to as a primary readout, because this assay has produced multiple assay endpoints where this one serves a reporter gene function. […]
smiles,measurement,value
CC(C)(Oc1ccc(CCNC(=O)c2ccc(Cl)cc2)cc1)C(=O)O,outcome,inactive
